This passage reports binding results from article PMC12470716, “Inhibitory Effect of Fucoidan Analogs on Highly Metastatic Gastric Cancer Cells via Galectin-4 Inhibition” (International Journal of Molecular Sciences, 2025).

Results are given in words; binding and its absence hold for the method and conditions named. Some results given as binding are weak or reduced against the parent protein; the word gives no strength. Tags and fused reporters may be left off the sequences shown.

The test addresses T1, asialofetuin (UniProt P12763).
T1 sequence: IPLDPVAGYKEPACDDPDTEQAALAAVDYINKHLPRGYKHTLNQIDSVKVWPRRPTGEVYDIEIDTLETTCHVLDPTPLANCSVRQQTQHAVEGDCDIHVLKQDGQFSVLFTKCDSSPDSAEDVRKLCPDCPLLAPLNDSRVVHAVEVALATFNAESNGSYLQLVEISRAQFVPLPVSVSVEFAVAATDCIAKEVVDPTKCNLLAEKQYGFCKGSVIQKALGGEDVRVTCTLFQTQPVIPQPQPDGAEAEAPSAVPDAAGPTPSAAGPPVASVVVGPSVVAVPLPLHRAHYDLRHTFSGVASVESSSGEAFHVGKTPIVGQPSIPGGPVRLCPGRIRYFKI
The test can be described thus: ELISA; ligand-coated plate; galectin-4 (0.25 ug/mL) with or without fucoidan analogs in 1% BSA in PBS, 1 h at room temperature; detected with anti-His-tag mAb-HRP; coating conditions for asialofetuin not told; both purified. (In general: In an ELISA, binding on a coated surface is turned into a signal by an enzyme label.)

B1: Human recombinant galectin-4 (full-length, His-tagged) (protein, UniProt P56470 1-323)
chain: MAYVPAPGYQPTYNPTLPYYQPIPGGLNVGMSVYIQGVASEHMKRFFVNFVVGQDPGSDVAFHFNPRFDGWDKVVFNTLQGGKWGSEERKRSMPFKKGAAFELVFIVLAEHYKVVVNGNPFYEYGHRLPLQMVTHLQVDGDLQLQSINFIGGQPLRPQGPPMMPPYPGPGHCHQQLNSLPTMEGPPTFNPPVPYFGRLQGGLTARRTIIIKGYVPPTGKSFAINFKVGSSGDIALHINPRMGNGTVVRNSLLNGSWGSEEKKITHNPFGPGQFFDLSIRCGLDRFKVYANGQHLFDFAHRLSAFQRVDTLEIQGDVTLSYVQI
Take B1: the binding entry is recorded as “binds”.
